Reference: PMC9012282
These are yes or no findings as the source states them, for the method shown. In cells and extracts the contact can be indirect. Some binding calls cover weakened binding; strength is not graded here.

Amino acid sequences for entries named in this document (tags omitted).
UniProt Q86WI3: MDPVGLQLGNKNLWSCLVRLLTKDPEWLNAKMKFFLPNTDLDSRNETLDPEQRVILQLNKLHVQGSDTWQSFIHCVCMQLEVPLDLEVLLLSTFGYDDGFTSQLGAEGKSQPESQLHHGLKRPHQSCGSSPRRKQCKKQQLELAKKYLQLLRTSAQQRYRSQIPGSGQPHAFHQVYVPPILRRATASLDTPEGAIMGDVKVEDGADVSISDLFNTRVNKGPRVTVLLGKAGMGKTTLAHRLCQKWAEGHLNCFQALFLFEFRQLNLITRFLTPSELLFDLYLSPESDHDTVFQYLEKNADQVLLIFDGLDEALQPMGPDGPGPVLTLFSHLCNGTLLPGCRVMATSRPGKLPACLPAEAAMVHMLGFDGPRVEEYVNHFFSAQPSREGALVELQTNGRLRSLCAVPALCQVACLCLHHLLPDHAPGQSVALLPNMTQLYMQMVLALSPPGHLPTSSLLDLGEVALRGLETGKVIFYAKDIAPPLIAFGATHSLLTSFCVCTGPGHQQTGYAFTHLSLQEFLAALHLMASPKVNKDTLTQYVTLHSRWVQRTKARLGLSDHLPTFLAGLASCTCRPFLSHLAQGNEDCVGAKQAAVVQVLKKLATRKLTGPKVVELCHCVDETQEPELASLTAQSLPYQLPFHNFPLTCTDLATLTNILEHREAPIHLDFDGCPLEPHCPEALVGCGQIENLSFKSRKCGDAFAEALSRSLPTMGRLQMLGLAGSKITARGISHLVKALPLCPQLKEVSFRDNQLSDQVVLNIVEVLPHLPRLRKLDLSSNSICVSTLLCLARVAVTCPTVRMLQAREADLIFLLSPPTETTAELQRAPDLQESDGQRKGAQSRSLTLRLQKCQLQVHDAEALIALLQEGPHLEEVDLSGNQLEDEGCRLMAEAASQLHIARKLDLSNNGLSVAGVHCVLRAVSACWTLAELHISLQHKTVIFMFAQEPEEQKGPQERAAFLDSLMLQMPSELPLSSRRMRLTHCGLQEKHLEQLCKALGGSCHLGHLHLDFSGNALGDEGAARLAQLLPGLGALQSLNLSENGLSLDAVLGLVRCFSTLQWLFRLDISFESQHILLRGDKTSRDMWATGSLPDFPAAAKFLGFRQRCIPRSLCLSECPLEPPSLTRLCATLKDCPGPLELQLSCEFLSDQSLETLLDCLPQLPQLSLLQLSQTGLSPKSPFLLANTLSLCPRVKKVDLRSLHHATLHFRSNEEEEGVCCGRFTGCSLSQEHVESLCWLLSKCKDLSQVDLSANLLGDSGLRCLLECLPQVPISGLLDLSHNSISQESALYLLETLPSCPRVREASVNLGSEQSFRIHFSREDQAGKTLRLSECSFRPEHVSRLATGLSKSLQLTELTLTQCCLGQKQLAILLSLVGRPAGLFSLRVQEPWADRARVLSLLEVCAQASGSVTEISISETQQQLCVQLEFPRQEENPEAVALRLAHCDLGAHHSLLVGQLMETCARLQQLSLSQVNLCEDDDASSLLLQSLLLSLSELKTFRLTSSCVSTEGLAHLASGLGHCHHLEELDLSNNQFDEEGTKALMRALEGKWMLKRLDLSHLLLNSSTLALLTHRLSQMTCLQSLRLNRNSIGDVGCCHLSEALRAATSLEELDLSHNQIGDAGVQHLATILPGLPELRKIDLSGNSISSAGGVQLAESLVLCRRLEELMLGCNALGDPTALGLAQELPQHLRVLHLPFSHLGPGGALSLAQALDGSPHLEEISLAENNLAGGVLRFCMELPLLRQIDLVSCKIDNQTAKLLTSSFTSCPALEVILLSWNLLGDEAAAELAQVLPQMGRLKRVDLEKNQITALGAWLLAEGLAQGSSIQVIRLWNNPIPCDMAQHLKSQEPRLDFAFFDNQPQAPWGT
UniProt O96028: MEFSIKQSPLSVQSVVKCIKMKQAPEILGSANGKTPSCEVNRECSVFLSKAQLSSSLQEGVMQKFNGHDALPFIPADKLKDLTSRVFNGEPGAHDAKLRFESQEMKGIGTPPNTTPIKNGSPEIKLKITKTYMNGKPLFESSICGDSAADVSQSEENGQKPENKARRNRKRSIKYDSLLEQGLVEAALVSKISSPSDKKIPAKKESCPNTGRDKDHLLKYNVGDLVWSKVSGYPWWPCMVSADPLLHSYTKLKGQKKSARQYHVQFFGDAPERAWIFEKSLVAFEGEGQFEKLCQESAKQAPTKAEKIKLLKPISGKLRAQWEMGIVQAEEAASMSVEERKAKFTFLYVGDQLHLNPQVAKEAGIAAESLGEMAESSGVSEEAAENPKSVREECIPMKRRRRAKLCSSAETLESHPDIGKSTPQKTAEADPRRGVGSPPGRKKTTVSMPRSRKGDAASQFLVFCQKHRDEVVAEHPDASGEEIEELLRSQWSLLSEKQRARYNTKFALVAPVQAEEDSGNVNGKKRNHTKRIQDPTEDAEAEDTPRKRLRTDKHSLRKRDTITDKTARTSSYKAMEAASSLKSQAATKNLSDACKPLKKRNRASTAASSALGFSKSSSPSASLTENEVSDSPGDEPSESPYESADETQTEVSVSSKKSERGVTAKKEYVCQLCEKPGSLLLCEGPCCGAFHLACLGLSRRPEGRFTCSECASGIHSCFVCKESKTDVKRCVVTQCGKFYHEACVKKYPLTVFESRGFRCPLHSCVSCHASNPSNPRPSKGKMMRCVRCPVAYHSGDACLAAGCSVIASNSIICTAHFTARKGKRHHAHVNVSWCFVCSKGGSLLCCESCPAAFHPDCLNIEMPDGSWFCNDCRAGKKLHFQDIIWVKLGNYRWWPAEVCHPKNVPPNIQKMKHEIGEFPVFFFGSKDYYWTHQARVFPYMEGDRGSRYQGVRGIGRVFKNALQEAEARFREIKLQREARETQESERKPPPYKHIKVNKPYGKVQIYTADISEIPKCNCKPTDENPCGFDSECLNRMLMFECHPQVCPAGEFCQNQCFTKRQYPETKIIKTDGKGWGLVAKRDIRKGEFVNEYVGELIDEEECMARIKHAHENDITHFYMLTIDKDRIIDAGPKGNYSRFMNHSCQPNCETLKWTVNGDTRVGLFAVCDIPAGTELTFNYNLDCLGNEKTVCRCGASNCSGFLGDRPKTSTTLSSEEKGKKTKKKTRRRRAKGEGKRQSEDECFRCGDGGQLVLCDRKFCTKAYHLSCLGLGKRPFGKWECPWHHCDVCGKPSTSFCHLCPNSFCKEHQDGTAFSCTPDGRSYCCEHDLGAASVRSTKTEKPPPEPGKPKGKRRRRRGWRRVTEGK

What was measured:
[1] = molecular target: NLRC5 of the in vitro binding assay (UniProt Q86WI3); assay: pull-down; in vitro binding assay (Supplemental Figure 4E); the methods name GST pull-down assays, details in the Supplemental Methods
[2] = molecular target: T1, IFN regulatory factor 1 (IRF-1), in 293T cells (UniProt P10914); assay: co-IP; exogenous WHSC1 in 293T cells; immunoblot of 293T cell immunoprecipitates
T1 sequence: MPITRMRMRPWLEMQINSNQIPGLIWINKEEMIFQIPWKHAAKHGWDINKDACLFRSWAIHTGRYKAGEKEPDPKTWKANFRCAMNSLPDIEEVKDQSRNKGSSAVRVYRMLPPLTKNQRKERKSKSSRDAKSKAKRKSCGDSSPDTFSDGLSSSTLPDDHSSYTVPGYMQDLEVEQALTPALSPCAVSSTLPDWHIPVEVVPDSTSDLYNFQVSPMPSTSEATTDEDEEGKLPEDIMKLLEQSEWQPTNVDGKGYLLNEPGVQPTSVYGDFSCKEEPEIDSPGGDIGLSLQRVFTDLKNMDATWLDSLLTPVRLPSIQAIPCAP

[3] = molecular target: NOD-like receptor (NLR) family, caspase recruitment domain-containing 5 (NLRC5), in 293T cells (UniProt Q86WI3); assay: as above

| Substance | binding [1] | binding [2] | binding [3] |
| --- | --- | --- | --- |
| WHSC1 of the in vitro binding assay (from UniProt O96028 1-1365) | binds | – | – |
| Wolf-Hirschhorn syndrome candidate 1 (WHSC1), exogenous (from UniProt O96028 1-1365) | – | no binding | binds |
